Data: paper PMC11515964
Results are given in words; binding and its absence hold for the method and conditions named. In cells and extracts the contact can be indirect. Some entries that bind do so weakly or less than the wild type.

Protein sequences, listed by entry. Tags and fused reporters are not part of them.
UniProt P49407: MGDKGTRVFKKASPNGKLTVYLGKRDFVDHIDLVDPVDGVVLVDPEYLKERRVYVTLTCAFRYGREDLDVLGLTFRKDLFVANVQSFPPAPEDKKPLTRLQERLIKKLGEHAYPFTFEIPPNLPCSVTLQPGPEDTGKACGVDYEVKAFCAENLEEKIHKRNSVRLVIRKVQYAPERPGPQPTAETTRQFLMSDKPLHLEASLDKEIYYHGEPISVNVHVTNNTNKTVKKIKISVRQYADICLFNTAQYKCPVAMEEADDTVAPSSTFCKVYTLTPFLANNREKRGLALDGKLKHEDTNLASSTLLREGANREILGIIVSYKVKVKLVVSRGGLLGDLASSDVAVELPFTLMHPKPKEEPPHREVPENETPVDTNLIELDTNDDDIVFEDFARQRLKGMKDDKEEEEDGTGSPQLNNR
UniProt P32121: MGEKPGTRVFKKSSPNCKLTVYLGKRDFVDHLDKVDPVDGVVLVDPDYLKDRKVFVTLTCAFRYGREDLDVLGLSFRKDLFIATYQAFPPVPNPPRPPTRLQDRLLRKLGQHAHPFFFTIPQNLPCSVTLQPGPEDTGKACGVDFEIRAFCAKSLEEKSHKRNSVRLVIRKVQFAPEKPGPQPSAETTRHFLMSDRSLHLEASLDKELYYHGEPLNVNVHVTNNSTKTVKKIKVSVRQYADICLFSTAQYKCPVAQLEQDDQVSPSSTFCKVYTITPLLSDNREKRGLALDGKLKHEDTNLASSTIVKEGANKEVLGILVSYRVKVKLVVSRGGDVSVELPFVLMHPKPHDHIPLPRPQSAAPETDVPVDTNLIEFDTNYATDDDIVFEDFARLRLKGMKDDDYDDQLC

Legend:
CMKLR1-WT-smBiT (human) = molecular target: T1, CMKLR1-WT-smBiT (human) (UniProt Q99788); experiment: split reporter; NanoBiT β-arrestin recruitment; HEK293T cotransfected with receptor-smBiT and LgBiT-β-Arr1 or LgBiT-β-Arr2; stimulated with different concentrations of full-length chemerin or C9; luminescence for 30 min
T1 sequence: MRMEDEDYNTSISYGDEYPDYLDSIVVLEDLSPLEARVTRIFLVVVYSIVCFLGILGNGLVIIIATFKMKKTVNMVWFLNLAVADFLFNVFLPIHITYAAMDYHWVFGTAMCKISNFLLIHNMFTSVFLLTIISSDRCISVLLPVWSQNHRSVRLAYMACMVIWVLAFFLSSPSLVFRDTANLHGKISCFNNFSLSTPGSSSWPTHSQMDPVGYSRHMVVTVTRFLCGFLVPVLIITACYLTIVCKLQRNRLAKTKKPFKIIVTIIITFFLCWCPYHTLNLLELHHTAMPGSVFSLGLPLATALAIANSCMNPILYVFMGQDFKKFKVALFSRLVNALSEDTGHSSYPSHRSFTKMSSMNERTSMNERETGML

GPR1-WT-smBiT (human) = molecular target: T2, GPR1-WT-smBiT (human) (UniProt P46091); experiment: as above
T2 sequence: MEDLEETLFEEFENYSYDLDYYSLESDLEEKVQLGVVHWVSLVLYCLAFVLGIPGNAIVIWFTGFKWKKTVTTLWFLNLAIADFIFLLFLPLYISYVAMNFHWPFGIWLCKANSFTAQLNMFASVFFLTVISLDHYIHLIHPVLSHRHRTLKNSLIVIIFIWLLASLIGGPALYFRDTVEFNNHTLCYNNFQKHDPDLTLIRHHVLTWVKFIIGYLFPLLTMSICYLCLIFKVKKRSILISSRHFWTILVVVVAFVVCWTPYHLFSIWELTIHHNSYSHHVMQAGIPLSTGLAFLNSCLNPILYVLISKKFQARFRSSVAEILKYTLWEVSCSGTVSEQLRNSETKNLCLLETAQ

Substance | binding (CMKLR1-WT-smBiT (human)) | binding (GPR1-WT-smBiT (human))
LgBiT-β-Arr1 (from UniProt P49407 1-418) | binds | binds
LgBiT-β-Arr2 (from UniProt P32121 1-409) | binds | 
